Data taken from paper PMC9918503.

Protein sequences, listed by entry. Tags and fused reporters are not part of them.
UniProt Q96SB4: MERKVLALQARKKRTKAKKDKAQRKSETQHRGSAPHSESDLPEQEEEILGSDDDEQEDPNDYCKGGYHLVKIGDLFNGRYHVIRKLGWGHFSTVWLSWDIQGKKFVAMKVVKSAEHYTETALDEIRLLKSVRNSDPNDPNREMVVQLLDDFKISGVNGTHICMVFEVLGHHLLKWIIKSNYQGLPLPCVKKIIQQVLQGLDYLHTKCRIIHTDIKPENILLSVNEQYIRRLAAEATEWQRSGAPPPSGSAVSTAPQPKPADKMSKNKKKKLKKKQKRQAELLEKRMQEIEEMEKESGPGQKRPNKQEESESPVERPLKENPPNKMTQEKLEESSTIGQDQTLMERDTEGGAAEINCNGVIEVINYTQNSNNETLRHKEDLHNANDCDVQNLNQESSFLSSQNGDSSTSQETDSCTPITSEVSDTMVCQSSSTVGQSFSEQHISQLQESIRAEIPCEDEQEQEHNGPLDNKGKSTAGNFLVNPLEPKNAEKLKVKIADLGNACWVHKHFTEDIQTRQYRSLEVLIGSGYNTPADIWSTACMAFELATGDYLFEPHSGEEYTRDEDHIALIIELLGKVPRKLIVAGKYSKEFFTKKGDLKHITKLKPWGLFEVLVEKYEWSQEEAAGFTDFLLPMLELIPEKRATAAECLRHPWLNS

Molecular target: T1, CTDNEP1-myc (HEK293T cells) (UniProt O95476)
T1 sequence: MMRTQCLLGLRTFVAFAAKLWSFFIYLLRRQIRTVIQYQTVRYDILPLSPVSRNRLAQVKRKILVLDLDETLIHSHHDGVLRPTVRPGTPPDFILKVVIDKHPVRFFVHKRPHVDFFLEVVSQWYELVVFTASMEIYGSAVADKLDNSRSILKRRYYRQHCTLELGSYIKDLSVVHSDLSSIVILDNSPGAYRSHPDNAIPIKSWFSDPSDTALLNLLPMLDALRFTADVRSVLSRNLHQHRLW
Test: affinity purification with mass spectrometry; immunoprecipitation for CTDNEP1-myc in CTDNEP1 enforced expression HEK293T cells, followed by mass spectrometry

Substance: SRPK1 (HEK293T cells) (from UniProt Q96SB4 1-655)
- binding: binds

These are yes or no findings as the source states them, for the method shown. In cells and extracts the contact can be indirect. A yes stands for co-enrichment or nearness to the bait. Other partners may have been found. Sequences can lack the tags named with a protein.
